Here are results for five compounds from US20180327375A1, “AROMATIC SURFACTANTS” (REGENTS OF THE UNIVERSITY OF MINNESOTA, priority 2015, published 2018).

Several values for one entry are separate records, joined by “and”; a condition that tells them apart may be missing. Identical values can stand only once. Counter-ions that a name gives are not always drawn.

The first series in a line: Draves wetting test (ASTM D2281 skein test). It counts as physicochemical. The note with it: 0.25 wt % surfactant in water, around Krafft point.
As for `CCCCCCCc1ccc(S(=O)(=O)[O-])o1.[Na+]` [OFS-7, Sodium 5-Heptylfuran-2-Sulfonate], the “Draves Wetting (wetting time TD)” value is reported as above 3600 s.
With `CCCCCCCCCCCCc1ccc(S(=O)(=O)[O-])o1.[Na+]` [OFS-12, Sodium 5-Dodecylfuran-2-Sulfonate], the “Draves Wetting (wetting time TD)” value is 48.9 s and 48.9 ± 13.3 s.
The same measure, in the same setting: the value for `CCCCCCCCCCCCCCc1ccc(S(=O)(=O)[O-])o1.[Na+]` [OFS-14, Sodium 5-Tetradecylfuran-2-Sulfonate] was 39.4 s and 39.4 ± 7.0 s; that for “sodium lauryl ether sulfate [SLES, reference compound]” was 15.4 s and 15.4 ± 4.0 s.

Staying with this series, now noted: 0.25 wt % surfactant in water, around Krafft point; sulfate.
Regarding `CCCCCCCCCCCCOS(=O)(=O)O` [SLS, sodium dodecyl sulfate, reference compound], the “Draves Wetting (wetting time TD)” value was 6.3 s and 6.3 ± 2.7 s.

Another series in a line: Surfactant foaming by bubbling air through the solution. It counts as physicochemical. The note with it: 0.5 wt % in water; foam height at 60 minutes normalized to SLS.
On to `CCCCCCCc1ccc(S(=O)(=O)[O-])o1.[Na+]` [OFS-7, Sodium 5-Heptylfuran-2-Sulfonate], for which the “Foam Height60 hi-60/hSLS-60” value worked out at 0.12.
With `CCCCCCCCCCCCc1ccc(S(=O)(=O)[O-])o1.[Na+]` [OFS-12, Sodium 5-Dodecylfuran-2-Sulfonate], the “Foam Height60 hi-60/hSLS-60” value came to 2.11.
Still for that read-out and setting: the value for `CCCCCCCCCCCCCCc1ccc(S(=O)(=O)[O-])o1.[Na+]` [OFS-14, Sodium 5-Tetradecylfuran-2-Sulfonate] was 0.75; that for `CCCCCCCCCCCCOS(=O)(=O)O` [SLS, sodium dodecyl sulfate, reference compound] was 1.00.

The series is the same for the next values; noted with them: 0.5 wt % in water; initial growth rate normalized to SLS.
For the compound `CCCCCCCc1ccc(S(=O)(=O)[O-])o1.[Na+]` [OFS-7, Sodium 5-Heptylfuran-2-Sulfonate], the “Foam Growth Rate ri/rSLS” value came out at 1.04.
Take `CCCCCCCCCCCCc1ccc(S(=O)(=O)[O-])o1.[Na+]` [OFS-12, Sodium 5-Dodecylfuran-2-Sulfonate]: the “Foam Growth Rate ri/rSLS” value amounted to 1.83.
With `CCCCCCCCCCCCCCc1ccc(S(=O)(=O)[O-])o1.[Na+]` [OFS-14, Sodium 5-Tetradecylfuran-2-Sulfonate], the “Foam Growth Rate ri/rSLS” value is 2.34.
Consider `CCCCCCCCCCCCOS(=O)(=O)O` [SLS, sodium dodecyl sulfate, reference compound], for which the “Foam Growth Rate ri/rSLS” value is on record as 1.00.
